{"source": "PubChem BioAssay AID1224826 (NIAID, 2016)", "aim": "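Genes that change LPS-induced Tnf promoter activity in mouse macrophages when knocked down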 (primary screen)", "system": "RAW264.7 G9 macrophages from mouse bearing reporters for p65 (GFP) and the Tnf promoter (mCherry)", "reagent": "siRNA pool against mouse genes, 100 nM", "duration": "16 h of LPS stimulation, after 2 days of siRNA transfection", "conditions": "bacterial lipopolysaccharide (Salmonella minnesota R595), 10 ng/ml", "read-out": "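Imaged Tnf reporter mCherry in nuclei, minus background, normalised per plate to the median and expressed as robust z-scores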", "reading the numbers": "Tnf reporter robust z-score: higher = stronger Tnf promoter reporter signal after LPS", "hit rule": "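Called active when robust z-score is at most -1.3, matching the median of the Tlr4 knock-down control, or over 3; control wells and wells with under 50 cells never active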", "meaning of the calls": "active = Tnf reporter clearly lowered or raised; inactive = no clear change in Tnf reporter", "note": "The deposit covers about 17,000 reagents; below is an unselected part. About 1,110 of them (6.6%) were called active. 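Active means lowered or raised reporter signal; replicate intensities are raw and not normalised per plate.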 Reagents against one gene are numbered here. A reagent listed more than once was tested more than once; the source does not tell the runs apart. Further read-outs or replicates are left out here."}
The opening 2 entries, ahead of the listing:
{"gene knocked down": "Fosl2", "reagent no.": 1, "Tnf reporter robust z-score": -0.27, "fewer than 50 cells in well": "enough cells in well", "activity call": "inactive"}
{"gene knocked down": "Tas2r131", "reagent no.": 1, "Tnf reporter robust z-score": 1.06, "fewer than 50 cells in well": "enough cells in well", "activity call": "inactive"}

The list itself, from the start:
{"gene knocked down": "Fosl2", "reagent no.": 1, "Tnf reporter robust z-score": -0.27, "fewer than 50 cells in well": "enough cells in well", "activity call": "inactive"}
{"gene knocked down": "Tas2r131", "reagent no.": 1, "Tnf reporter robust z-score": 1.06, "fewer than 50 cells in well": "enough cells in well", "activity call": "inactive"}
{"gene knocked down": "Gjc2", "reagent no.": 1, "Tnf reporter robust z-score": -0.77, "fewer than 50 cells in well": "enough cells in well", "activity call": "inactive"}
{"gene knocked down": "Magea1", "reagent no.": 1, "Tnf reporter robust z-score": -0.79, "fewer than 50 cells in well": "enough cells in well", "activity call": "inactive"}
{"gene knocked down": "Spmip4", "reagent no.": 1, "fewer than 50 cells in well": "fewer than 50 cells per well; well left out of calls", "activity call": "inactive"}
{"gene knocked down": "Krtap19-1", "reagent no.": 1, "Tnf reporter robust z-score": -0.64, "fewer than 50 cells in well": "enough cells in well", "activity call": "inactive"}
{"gene knocked down": "Rps6kl1", "reagent no.": 1, "Tnf reporter robust z-score": 0.91, "fewer than 50 cells in well": "enough cells in well", "activity call": "inactive"}
{"gene knocked down": "Procr", "reagent no.": 1, "Tnf reporter robust z-score": 0.21, "fewer than 50 cells in well": "enough cells in well", "activity call": "inactive"}
{"gene knocked down": "Ky", "reagent no.": 1, "Tnf reporter robust z-score": 1.16, "fewer than 50 cells in well": "enough cells in well", "activity call": "inactive"}
{"gene knocked down": "Zbtb48", "reagent no.": 1, "Tnf reporter robust z-score": 1.19, "fewer than 50 cells in well": "enough cells in well", "activity call": "inactive"}
{"gene knocked down": "Atp6v0a1", "reagent no.": 1, "Tnf reporter robust z-score": 0.69, "fewer than 50 cells in well": "enough cells in well", "activity call": "inactive"}
{"gene knocked down": "Camk2a", "reagent no.": 1, "Tnf reporter robust z-score": -1.12, "fewer than 50 cells in well": "enough cells in well", "activity call": "inactive"}
{"gene knocked down": "Klk1b7-ps", "reagent no.": 1, "fewer than 50 cells in well": "fewer than 50 cells per well; well left out of calls", "activity call": "inactive"}
{"gene knocked down": "Chd8", "reagent no.": 1, "Tnf reporter robust z-score": -0.52, "fewer than 50 cells in well": "enough cells in well", "activity call": "inactive"}
{"gene knocked down": "Or51a39", "reagent no.": 1, "Tnf reporter robust z-score": -0.77, "fewer than 50 cells in well": "enough cells in well", "activity call": "inactive"}
{"gene knocked down": "Ngf", "reagent no.": 1, "Tnf reporter robust z-score": 1.64, "fewer than 50 cells in well": "enough cells in well", "activity call": "inactive"}
{"gene knocked down": "Or4c126", "reagent no.": 1, "Tnf reporter robust z-score": 1.6, "fewer than 50 cells in well": "enough cells in well", "activity call": "inactive"}
{"gene knocked down": "Minar1", "reagent no.": 1, "Tnf reporter robust z-score": 0.93, "fewer than 50 cells in well": "enough cells in well", "activity call": "inactive"}
{"gene knocked down": "Acad10", "reagent no.": 1, "Tnf reporter robust z-score": -0.45, "fewer than 50 cells in well": "enough cells in well", "activity call": "inactive"}
{"gene knocked down": "Acad10", "reagent no.": 1, "Tnf reporter robust z-score": -0.24, "fewer than 50 cells in well": "enough cells in well", "activity call": "inactive"}
{"gene knocked down": "Spg7", "reagent no.": 1, "Tnf reporter robust z-score": 0.9, "fewer than 50 cells in well": "enough cells in well", "activity call": "inactive"}
{"gene knocked down": "Spg7", "reagent no.": 2, "Tnf reporter robust z-score": 0.26, "fewer than 50 cells in well": "enough cells in well", "activity call": "inactive"}
